No constants are given. Whether binding was seen depends on the method and setting. Binding seen in cells or lysates may run through a third protein. Some results given as binding are weak or reduced against the parent protein; the word gives no strength.
Tests used:
[1] = target: endogenous Cx43 of rat epidermal keratinocytes (rat (endogenous in REKs)) (UniProt P08050); test: co-IP; REKs expressing Cx31.1–FLAG, lysed 24 h after transfection in IP buffer (10 mM Tris-HCl pH 7.4, 150 mM NaCl, 1 mM EDTA, 1 mM EGTA, 0.5% NP-40, 1% Triton X-100); IP with rabbit anti-Cx43 on protein G magnetic beads, 1000 μg lysate, 30 min at room temperature; blot for FLAG
[2] = target: Cx31.1–FLAG (human Cx31.1, from pCMV6-Cx31.1-Myc-DDK) (human) (UniProt O95377); test: co-IP; REKs expressing Cx31.1–FLAG, lysed 24 h after transfection in IP buffer (10 mM Tris-HCl pH 7.4, 150 mM NaCl, 1 mM EDTA, 1 mM EGTA, 0.5% NP-40, 1% Triton X-100); IP with rabbit anti-FLAG on protein G magnetic beads, 1000 μg lysate, 30 min at room temperature; blot for Cx43

Chains of the proteins cited; added tags and fusions are not shown.
UniProt P08050: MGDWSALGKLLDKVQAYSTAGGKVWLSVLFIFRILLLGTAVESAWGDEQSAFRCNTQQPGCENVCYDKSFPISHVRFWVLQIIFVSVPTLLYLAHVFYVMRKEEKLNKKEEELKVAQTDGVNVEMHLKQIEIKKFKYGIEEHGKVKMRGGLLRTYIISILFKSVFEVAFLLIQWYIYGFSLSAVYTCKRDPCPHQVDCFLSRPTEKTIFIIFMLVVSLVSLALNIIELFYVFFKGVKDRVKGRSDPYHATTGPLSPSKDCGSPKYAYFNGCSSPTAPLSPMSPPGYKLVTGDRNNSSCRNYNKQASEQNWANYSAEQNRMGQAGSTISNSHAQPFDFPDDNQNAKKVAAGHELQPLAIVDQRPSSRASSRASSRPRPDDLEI
UniProt O95377: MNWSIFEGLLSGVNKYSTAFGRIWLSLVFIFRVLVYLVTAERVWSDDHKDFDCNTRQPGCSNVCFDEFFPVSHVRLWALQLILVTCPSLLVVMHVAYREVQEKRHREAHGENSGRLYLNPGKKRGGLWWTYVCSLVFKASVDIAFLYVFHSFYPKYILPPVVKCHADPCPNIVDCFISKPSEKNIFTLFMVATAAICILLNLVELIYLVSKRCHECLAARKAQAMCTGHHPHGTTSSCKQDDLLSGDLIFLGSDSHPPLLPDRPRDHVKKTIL

Cx31.1–FLAG (human Cx31.1, from pCMV6-Cx31.1-Myc-DDK) (from UniProt O95377 1-273)
binding [1]: binds

endogenous Cx43 of rat epidermal keratinocytes (from UniProt P08050 1-382)
binding [2]: binds

Reference: publication PMC11058089
